Reference: article PMC11990775
Results are given in words; binding and its absence hold for the method and conditions named. Binding seen in cells or lysates may run through a third protein. For some of these results: Binding calls can cover weak binding; strength is not graded here.

Chains of the proteins cited; added tags and fusions are not shown. Lines headed by an entry give the natural chain unless they say otherwise; changes in a name come on top.
UniProt Q99J72: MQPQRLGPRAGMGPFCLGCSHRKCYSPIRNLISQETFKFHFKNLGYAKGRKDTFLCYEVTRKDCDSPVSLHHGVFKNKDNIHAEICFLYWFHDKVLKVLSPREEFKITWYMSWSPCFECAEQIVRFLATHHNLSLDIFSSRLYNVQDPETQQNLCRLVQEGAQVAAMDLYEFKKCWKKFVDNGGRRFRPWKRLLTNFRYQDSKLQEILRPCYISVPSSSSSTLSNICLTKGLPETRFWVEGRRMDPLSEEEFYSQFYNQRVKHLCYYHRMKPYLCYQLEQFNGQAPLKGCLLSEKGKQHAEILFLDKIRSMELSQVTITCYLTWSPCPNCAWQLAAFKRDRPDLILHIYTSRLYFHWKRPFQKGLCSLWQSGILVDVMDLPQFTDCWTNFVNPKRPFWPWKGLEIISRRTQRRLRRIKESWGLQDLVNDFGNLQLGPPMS
UniProt O43143: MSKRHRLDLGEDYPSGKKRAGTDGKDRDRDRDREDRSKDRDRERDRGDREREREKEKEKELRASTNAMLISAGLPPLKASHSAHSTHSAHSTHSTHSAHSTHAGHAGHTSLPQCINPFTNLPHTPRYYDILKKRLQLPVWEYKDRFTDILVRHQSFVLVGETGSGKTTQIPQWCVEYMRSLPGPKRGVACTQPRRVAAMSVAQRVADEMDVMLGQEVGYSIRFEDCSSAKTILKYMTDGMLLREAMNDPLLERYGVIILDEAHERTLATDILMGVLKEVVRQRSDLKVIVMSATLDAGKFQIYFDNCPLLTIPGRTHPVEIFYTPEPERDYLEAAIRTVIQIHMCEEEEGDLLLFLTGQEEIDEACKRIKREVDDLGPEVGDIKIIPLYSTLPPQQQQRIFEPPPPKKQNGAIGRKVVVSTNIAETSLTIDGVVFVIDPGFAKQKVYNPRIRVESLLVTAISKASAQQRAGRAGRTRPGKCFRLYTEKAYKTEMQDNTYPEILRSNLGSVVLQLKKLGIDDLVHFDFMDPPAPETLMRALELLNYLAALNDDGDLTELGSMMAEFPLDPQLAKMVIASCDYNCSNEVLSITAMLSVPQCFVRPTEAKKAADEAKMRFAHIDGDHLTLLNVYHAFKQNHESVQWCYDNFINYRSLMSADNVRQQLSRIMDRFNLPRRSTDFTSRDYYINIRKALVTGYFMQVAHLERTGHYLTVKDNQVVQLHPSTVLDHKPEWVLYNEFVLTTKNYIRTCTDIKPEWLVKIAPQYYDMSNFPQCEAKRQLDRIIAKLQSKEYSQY
UniProt O35286: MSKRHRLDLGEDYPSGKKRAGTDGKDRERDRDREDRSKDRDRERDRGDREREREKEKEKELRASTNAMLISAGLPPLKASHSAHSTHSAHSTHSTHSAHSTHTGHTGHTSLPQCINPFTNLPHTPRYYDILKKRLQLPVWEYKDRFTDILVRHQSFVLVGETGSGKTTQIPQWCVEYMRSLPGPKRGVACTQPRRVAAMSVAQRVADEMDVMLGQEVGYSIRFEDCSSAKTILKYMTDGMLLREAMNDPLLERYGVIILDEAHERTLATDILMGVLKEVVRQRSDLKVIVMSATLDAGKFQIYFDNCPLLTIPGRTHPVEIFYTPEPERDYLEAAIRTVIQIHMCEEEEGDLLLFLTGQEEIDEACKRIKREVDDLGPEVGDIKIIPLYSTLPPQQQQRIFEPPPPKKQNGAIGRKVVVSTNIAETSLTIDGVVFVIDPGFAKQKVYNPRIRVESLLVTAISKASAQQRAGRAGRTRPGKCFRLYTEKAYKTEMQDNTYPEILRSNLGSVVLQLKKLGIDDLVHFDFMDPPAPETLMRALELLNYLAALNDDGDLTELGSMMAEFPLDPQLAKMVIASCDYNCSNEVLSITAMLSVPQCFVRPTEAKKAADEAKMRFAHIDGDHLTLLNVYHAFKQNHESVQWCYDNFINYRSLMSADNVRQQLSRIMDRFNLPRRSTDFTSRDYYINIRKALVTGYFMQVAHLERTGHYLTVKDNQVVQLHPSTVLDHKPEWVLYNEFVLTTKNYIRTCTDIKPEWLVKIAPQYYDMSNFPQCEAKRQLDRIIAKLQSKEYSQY
UniProt P67809: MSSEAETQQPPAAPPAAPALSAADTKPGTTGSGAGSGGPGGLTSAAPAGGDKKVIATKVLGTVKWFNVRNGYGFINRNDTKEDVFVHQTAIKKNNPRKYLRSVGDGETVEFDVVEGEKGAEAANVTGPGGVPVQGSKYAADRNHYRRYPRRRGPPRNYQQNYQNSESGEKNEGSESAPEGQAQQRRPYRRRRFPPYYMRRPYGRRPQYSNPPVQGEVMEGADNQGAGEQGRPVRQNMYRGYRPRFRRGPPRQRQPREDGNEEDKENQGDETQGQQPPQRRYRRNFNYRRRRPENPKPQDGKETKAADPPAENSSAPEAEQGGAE

How the values were obtained:
[1] = target: FLAG-tagged full-length mouse APOBEC3 (containing exon 5) (mouse) (UniProt Q99J72); assay: co-IP; as a2, but lysates incubated with RNase A (50 µg/ml) at 37°C for 30 minutes prior to immunoprecipitation
[2] = target: FLAG-tagged full-length mouse APOBEC3 (containing exon 5) (mouse) (UniProt Q99J72); assay: co-IP; 293T cells over-expressing FLAG-tagged mAPOBEC3, hAPOBEC3G or RFP; endogenous partner detected by Western blot; no RNase A
[3] = target: FLAG-tagged full-length mouse APOBEC3 (containing exon 5) (mouse) (UniProt Q99J72); assay: co-IP; 293T cells transfected with FLAG-tagged RFP, mA3, mA3N or mA3C and the DHX15 vector; blots probed with anti-DHX15 and anti-FLAG
[4] = target: GFP-tagged mAPOBEC3 fragment of 80 amino acids of the N terminus (mouse) (UniProt Q99J72); assay: co-IP; GFP-tagged mAPOBEC3 CD1 truncations and DHX15; lysates without RNase A
[5] = target: HA-tagged mouse APOBEC3 (mouse) (UniProt Q99J72); assay: proximity ligation; NIH3T3 cells transiently transfected with HA-tagged mAPOBEC3, fixed with methanol; mouse anti-HA and rabbit anti-DHX15; NaveniFlex MR PLA kit
[6] = target: FLAG-tagged full-length mouse APOBEC3 (containing exon 5) (mouse) (UniProt Q99J72); assay: condition: only lysates treated with RNase A (50 µg/ml, 37°C, 30 minutes) prior to immunoprecipitation; co-IP; as a2, but lysates incubated with RNase A (50 µg/ml) at 37°C for 30 minutes prior to immunoprecipitation

For “DEAH-box helicase 15 (DHX15), endogenous in 293T cells (from UniProt O43143 1-795)”, the binding [1] was “binds” and the binding [2] was “binds”.

For “DHX15 in the co-IPs with mAPOBEC3 domains and CD1 truncations (the DHX15 vector) (from UniProt O43143 1-795)”, the binding [3] was “binds” and the binding [4] was “binds”.

In the case of “DHX15, endogenous in mouse cells (from UniProt O35286 1-795)”, the binding [5] is reported as “binds”.

“Y-box binding protein 1 (YB1), endogenous in 293T cells (from UniProt P67809 1-324)” was tested, and the binding [6] was “no binding” and the binding [2] was “binds”.
